The results in this text go back to patent US20200002434A1 (BIOSION, published 2020).

No constants are given. Whether binding was seen depends on the method and setting. Some results given as binding are weak or reduced against the parent protein; the word gives no strength.

Assay [1] concerns the target recombinant Macaca fascicularis ErbB2-ECD (Macaca fascicularis). The assay can be described thus: indirect ELISA.
Assay [2] shares this target. The assay can be described thus: indirect ELISA, coated ErbB2-ECD 1 ug/ml. A general note: In an ELISA, binding on a coated surface is turned into a signal by an enzyme label.
Assay [3] has the same target. The assay can be described thus: indirect ELISA, coated ErbB2-ECD.

B1: 4C9 mouse anti-ErbB2 monoclonal antibody (antibody, mouse IgG1, V domains shown)
VH: QVQLQQSGAELARPGASVKMSCKASGYTFTSYTMHWVKQRPGQGLDWIGYINPSSGYTTYNQKFKDKATLTADKSSSTAYMQLSSLASADSAVYYCARASAYSLDYWGQGTTLTVSS
VL: DIQMTQSPSSLSASLGGRVTITCKASHDIDRYIAWYQHKPGKGPRLLIHYTSTLQPGIPSRFSGSGSGRDYSFSISNLEPEDIATYYCLKYDNLLWTFGGGTKLEIT
notes: also called 4C9G3F5; IgG 4C9
With B1, the binding result in assay [1] and in assay [2] was “binds” each time.

B2: 4C9 chimera (antibody, V domains shown)
VH: QVQLQQSGAELARPGASVKMSCKASGYTFTSYTMHWVKQRPGQGLDWIGYINPSSGYTTYNQKFKDKATLTADKSSSTAYMQLSSLASADSAVYYCARASAYSLDYWGQGTTLTVSS
VL: DIQMTQSPSSLSASLGGRVTITCKASHDIDRYIAWYQHKPGKGPRLLIHYTSTLQPGIPSRFSGSGSGRDYSFSISNLEPEDIATYYCLKYDNLLWTFGGGTKLEIT
notes: also called 4C9 chimeric antibody
B2: the binding result in assay [3] is “binds”.

B3: 4G6 chimera (antibody, V domains shown)
VH: QVQLQQSGAELARPGASVKMSCKASGYTFTSYTMHWVKQRPGQGLEWIGYINPSSAYTNYNQKFKDKATLTADKSSSTANMQLNSLTSEDSAVYYCARASAYSLDYWGQGTALTVSS
VL: DIQMTQSPSSLSASLGGKVTITCKASQDINKYIAWYQHKPGKGPRLLIHSTSTLYPGIPSRFSGSGSGRDYSFRITNLEPEDIATYYCLQYDNLLWTFGGGTKVGIR
notes: also called 4G6 chimeric antibody
In the case of B3, in assay [3], the binding entry was “binds”.

B4: 4G6 mouse anti-ErbB2 monoclonal antibody (antibody, mouse IgG1, V domains shown)
VH: QVQLQQSGAELARPGASVKMSCKASGYTFTSYTMHWVKQRPGQGLEWIGYINPSSAYTNYNQKFKDKATLTADKSSSTANMQLNSLTSEDSAVYYCARASAYSLDYWGQGTALTVSS
VL: DIQMTQSPSSLSASLGGKVTITCKASQDINKYIAWYQHKPGKGPRLLIHSTSTLYPGIPSRFSGSGSGRDYSFRITNLEPEDIATYYCLQYDNLLWTFGGGTKVGIR
notes: also called 4G6C9B8; IgG 4G6
Consider B4, for which the binding result in assay [1] and in assay [2] was “binds” each time.

B5: 5G9 mouse anti-ErbB2 monoclonal antibody (antibody, mouse IgG1, V domains shown)
VH: QVQLQQSGAELARPGASVKMSCKTSGYTFSSYTIHWVKQRPGQGLDWIGYINPSSDYTAYNQKFRDKATLTADQSSNTAYMQLSSLASADSAVYYCARASAFSLDFWGQGTTLTVSS
VL: DIQMTQSPSSLSASLGGKVTISCKASHDIDRYIAWYQHKPGKGPRLLIHYTSTLQPGIPSRFSGSGSGRDYSFSISNLEPEDVATYYCLNYDNLLWTFGGGTKLEIT
notes: also called 5G91B42A3; IgG 5G9
In the case of B5, the binding entry in assay [1] and in assay [2] was “binds” throughout.

B6: 5G9 chimera (antibody, V domains shown)
VH: QVQLQQSGAELARPGASVKMSCKTSGYTFSSYTIHWVKQRPGQGLDWIGYINPSSDYTAYNQKFRDKATLTADQSSNTAYMQLSSLASADSAVYYCARASAFSLDFWGQGTTLTVSS
VL: DIQMTQSPSSLSASLGGKVTISCKASHDIDRYIAWYQHKPGKGPRLLIHYTSTLQPGIPSRFSGSGSGRDYSFSISNLEPEDVATYYCLNYDNLLWTFGGGTKLEIT
notes: also called 5G9 chimeric; 5G9 chimeric antibody
Regarding B6, the binding entry in assay [3] is “binds”.

B7: 4H2 chimera (antibody, V domains shown)
VH: QVQLQQSGAELARPGASVKMSCKASGFTFTSYTIHWVKQRPGQGLDWIGYINPSSGYTTYNQRFKDKATLTADKSSSTAYMQLSSLTSADSAVYYCARASAYSLDYWGQGTTLTVSS
VL: DIQMTQSPSSLSASLGGKVTITCKASQDIDRYIAWYQHKPGKGPRLLIHYTSTLQPGIPSRFSGSGSGRNYSFSISNLEPEDIATYYCLKYDNLLWTFGGGTKLEIK
notes: also called 4H2 chimeric antibody
On to B7, for which the binding entry in assay [3] was “binds”.

B8: 4H2 mouse anti-ErbB2 monoclonal antibody (antibody, mouse IgG1, V domains shown)
VH: QVQLQQSGAELARPGASVKMSCKASGFTFTSYTIHWVKQRPGQGLDWIGYINPSSGYTTYNQRFKDKATLTADKSSSTAYMQLSSLTSADSAVYYCARASAYSLDYWGQGTTLTVSS
VL: DIQMTQSPSSLSASLGGKVTITCKASQDIDRYIAWYQHKPGKGPRLLIHYTSTLQPGIPSRFSGSGSGRNYSFSISNLEPEDIATYYCLKYDNLLWTFGGGTKLEIK
notes: also called 4H2H2H9; IgG 4H2
As for B8, the binding result in assay [1] and in assay [2] was “binds” in each case.

B9: 5F12 mouse anti-ErbB2 monoclonal antibody (antibody, mouse IgG1, V domains shown)
VH: QVQLQQSGAELARPGASVKMSCKASGYTFTSYTMHWIKQRPGQGLEWIGYINPSSSYTNYNQNFKDKATLTADKSSSTANMQLNSLTSEDSAVYYCARASSYSLDYWGQGTALTVSS
VL: DIQMTQSPSSLSTSLGGKVTITCKASQDINKYIAWYQHKPGKGPRLLIHSTSTLYPGIPSRFSGSGSGKDYSFRITNLEPEDIATYYCLQYDNLLWTFGGGTKLGIR
notes: also called 5F12E5A8; IgG 5F12
Consider B9, for which the binding entry in assay [1] and in assay [2] was “binds” each time.

B10: 5F12 chimera (antibody, V domains shown)
VH: QVQLQQSGAELARPGASVKMSCKASGYTFTSYTMHWIKQRPGQGLEWIGYINPSSSYTNYNQNFKDKATLTADKSSSTANMQLNSLTSEDSAVYYCARASSYSLDYWGQGTALTVSS
VL: DIQMTQSPSSLSTSLGGKVTITCKASQDINKYIAWYQHKPGKGPRLLIHSTSTLYPGIPSRFSGSGSGKDYSFRITNLEPEDIATYYCLQYDNLLWTFGGGTKLGIR
notes: also called 5F12 chimeric; 5F12 chimeric antibody
Turning to B10, in assay [3], the binding result was “binds”.
